The experiment can be described thus: IkB Signaling. As to conditions: ABC-DLBCL IkBa-CBG/CBR dual luciferase ratio (green luciferase fused to IkBa over red control in OCI-Ly3 lymphoma cells), 4 h. The essentials: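 Curves were fitted separately to fusion (green), unfused (red) and ratio luminescence, then classed by r2, magnitude and activity. Cells: OCI-Ly3, 4 h compound plus doxycycline at 37C; 10 uM MG-132 defined full response.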
The mark [1] stands for this setting: measured here: control luc red channel unless noted.
The mark [2] stands for this setting: measured here: IkB-luc green channel.
Where [3] appears, read: measured here: control luc red channel.

Values joined by “and” are separate entries in the source; they are usually repeats but may differ in a detail not shown here. Equal values may be shown once. This is one part of the list. Shown are side measurements of this screen, not its main read-out; they come without a call. The list favours compounds with an active or inconclusive main result. Words in brackets tell the shape of the fitted curve; partial curves, single points and poor fits give uncertain potencies.

Regarding `Cc1cc(NC(=O)C2CCN(S(=O)(=O)c3ccc(Br)s3)CC2)ccc1Br`, under setting [1], the AC50 is 15.8 µM [falling, partial curve].
On the same count and under the same terms, the same measure for `CCN(CC)CCCNC(=O)c1cc(-c2cccc(Cl)c2)on1`: 10 µM [falling, partial curve]; for `Cc1ccc(CNC(=O)CSc2n[nH]c(-c3ccc(F)cc3)n2)cc1`: 15.8 µM [falling, single point]; for `O=C(COc1ccccc1O)Nc1ccc(Cl)cc1`: 7.94 µM [falling, partial curve].
The same measure, in the same setting: the same measure for `Cc1cc2oc(C(=O)Nc3ccc(S(=O)(=O)N4CCCCCC4)cc3)cc(=O)c2cc1C`: 0.0398 µM [rising, full curve].
The same measure, in the same setting: the same measure for `COc1cc2c(=O)n(CC3CCCO3)c(=O)n(CC(=O)Nc3cccc(Cl)c3)c2cc1OC` (centres undefined): 3.98 µM [falling, full curve, poor fit]; for `O=C(c1ccc(COc2ccc(Cl)cc2)o1)N1CCN(Cc2ccc3c(c2)OCO3)CC1`: 7.94 µM [falling, partial curve].
For the compound `Cc1ccc(NC(=O)Nc2nnc(N(C)Cc3ccccc3)s2)c(C)c1`, under setting [1], the AC50 was 12.6 µM [falling, partial curve].
On the same count and under the same terms, the same measure for `CC(=O)N1CCc2c(sc3nc(SCC(C)C)n(-c4ccc(F)c(Cl)c4)c(=O)c23)C1`: 25.1 µM [falling, single point].
On to `COC(=O)c1ccc(C2C(C(=O)Nc3ccccc3)=C(C)Nc3nc4ccccc4n32)cc1` (centres undefined), for which the AC50 under setting [1] was 12.6 µM [falling, partial curve].
The same measure, in the same setting: the same measure for `CN(C)S(=O)(=O)N(CC(=O)Nc1ccc(C(F)(F)F)cc1)c1ccccc1`: 7.94 µM [falling, partial curve]; for `Cc1nc(N2CCOCC2)c2c(C(=O)NCc3ccc(Cl)cc3)c(C)oc2n1`: 20 µM [falling, single point].
On the same count and under the same terms, the same measure for `CCc1ccc(NC(=O)c2nc3nc(C)cc(C(F)F)n3n2)cc1`: 1.58 µM [rising, full curve]; for `Cc1ccc(S(=O)(=O)N2CC=C(c3c(C)n(CC(=O)N4CCCC4)c4ccccc34)CC2)cc1C`: 20 µM [falling, single point]; for `COc1cc(OC)cc(C(=O)NCCc2csc3nc(-c4ccccc4F)nn23)c1`: 39.8 µM [falling, single point].
On the same count and under the same terms, as for `Cc1sc(-n2cccc2)c(C(C)NC(=O)Nc2cccc(C(F)(F)F)c2)c1C` (centres undefined), the figure is 1.58 µM [falling, single point]; as for `O=C(Nc1ccc(F)cc1)c1cc(S(=O)(=O)N2CCCCC2)cs1`, 10 µM [falling, partial curve].
Take `COc1ccccc1CNS(=O)(=O)c1cc(Br)cc2c1N(C(=O)C1CC1)CC2`: under setting [1], the AC50 is 12.6 µM [falling, partial curve].
Still for that read-out and setting: as for `Cc1cc(C)c2sc(NC(=O)c3ccc(S(=O)(=O)N4CCCC4)cc3)nc2c1`, the figure is 5.01 µM [falling, partial curve]; as for `CC(C)(C)c1ccc(-c2nc(C#N)c(NCc3ccncc3)o2)cc1`, 39.8 µM [falling, single point]; as for `COc1ccccc1C(=O)Nc1nc2nc(C)cc(=O)n2[nH]1`, 3.98 µM [falling, partial curve].
As for `O=C1C(SCCO)=C(SCCO)C(=O)c2ccccc21`, the AC50 under setting [2] is 5.01 µM [rising, partial curve]; the AC50 under setting [3] is 3.98 µM [falling, partial curve] and 2 µM [falling, full curve].
For `COc1ccc(OC)c(S(=O)(=O)Nc2ccc3c(c2)n(C)c(=O)n3C)c1`, the AC50 under setting [2] is 10 µM [rising, partial curve] and the AC50 under setting [3] is 20 µM [rising, partial curve].
As for `CCOC(=O)c1c(C)oc2ccc(N(C(=O)c3ccncc3)S(=O)(=O)c3ccc(CC)cc3)cc12`, the AC50 runs as follows: under setting [2], 7.94 µM [rising, single point]; under setting [3], 15.8 µM [falling, partial curve].
With `C=CCc1ccccc1OCC(O)CN1CCN(Cc2ccc3c(c2)OCO3)CC1` (centres undefined), the AC50 under setting [1] is 15.8 µM [falling, partial curve].
On to `CCOC(=O)c1c(C)[nH]c(CCC(=O)Nc2cc(Cl)ccc2OC)c1C`, for which the AC50 under setting [1] was 25.1 µM [falling, partial curve].
Turning to `COC(=O)c1cc(NC(=O)c2cc3c(-c4ccccc4F)nn(C)c3s2)cc(C(=O)OC)c1`, the AC50 under setting [1] was 15.8 µM [falling, partial curve].
For the compound `O=C(c1cccs1)N1CCC(c2nc3ccccc3s2)CC1`, the AC50 under setting [1] was 31.6 µM [falling, single point].
On the same count and under the same terms, as for `COc1ccc(N2CCN(S(=O)(=O)c3ccc(CC(C)C)cc3)CC2)cc1`, the figure is 15.8 µM [falling, partial curve]; as for `CCOC(=O)c1c(NC(=O)CSc2nnc(-c3ccccc3)n2CC)sc(C(C)=O)c1C`, 15.8 µM [falling, partial curve].
On to `O=C(CSc1ncnc2ccccc12)N1CCN(c2ccccc2)CC1`, for which the AC50 under setting [1] was 15.8 µM [falling, partial curve].
Turning to `CCOC(=O)c1cccc(NC(=O)C(C)n2nc(C)c3c(C)n(-c4ccccc4)nc3c2=O)c1` (centres undefined), the AC50 under setting [1] was 20 µM [falling, single point].
The same measure, in the same setting: as for `CCOC(=O)c1cc(C#N)c(NCc2ccccc2)nc1C`, the figure is 3.98 µM [rising, partial curve].
In the case of `Cc1oc(-c2ccccc2F)nc1CS(=O)(=O)CC(=O)N1CCN(c2ccccc2)CC1`, the AC50 under setting [1] is 20 µM [falling, partial curve].
The same measure, in the same setting: the same measure for `O=C(CSc1nc(NS(=O)(=O)c2ccccc2)cc(=O)[nH]1)Nc1ccc(F)cc1`: 12.6 µM [falling, partial curve].
Turning to `COc1cc(/C=C/C(=O)CC(=O)/C=C/c2ccc(O)c(OC)c2)ccc1O`, the AC50 is, setting by setting: under setting [2], 3.98 µM [rising, partial curve]; under setting [3], 12.6 µM [falling, partial curve].
As for `COc1ccc(-c2[nH]c(-c3ccc(O)cc3)nc2-c2ccccc2)cc1`, the AC50 under setting [1] is 3.16 µM [falling, partial curve].
The same measure, in the same setting: as for `C=CCOC(=O)c1[nH]c2c(c1C)C(=O)CC(c1ccco1)C2` (centres undefined), the figure is 631 nM [rising, full curve] [measured here: IkB-luc green channel]; as for `CC(CNC(=O)c1ccc2c(c1)nc1n2CCCCC1)c1ccccc1` (centres undefined), 15.8 µM [falling, single point]; as for `COC(=O)c1nn(-c2ccc(-c3ccccc3)cc2)cc1O`, 15.8 µM [falling, single point].
Still for that read-out and setting: as for `COc1ccccc1-c1nn2c(=O)cc(CN3CCN(C(=O)Nc4ccc(C)cc4Cl)CC3)nc2s1`, the figure is 0.0501 µM [falling, full curve]; as for `Cc1ccc(C2C(=O)N(C3CCC(C)CC3)CC(=O)N2C2CCCC2)cc1` (centres undefined), 20 µM [falling, single point].
The same measure, in the same setting: the same measure for `Cc1cc(NS(=O)(=O)c2ccc(NC(=O)COc3c(C)ccc(C)c3C)cc2)nc(C)n1`: 15.8 µM [falling, partial curve].
Turning to `CCS(=O)(=O)N1CCc2cc(C(=O)Nc3ccc(Br)cc3F)ccc21`, the half-maximal activity concentration (AC50) under setting [1] was 5.01 µM [falling, partial curve].
The same measure, in the same setting: as for `CCc1cccc(C)c1NC(=O)c1ccc2c(c1)CCN2S(=O)(=O)c1ccc(Cl)cc1`, the figure is 10 µM [falling, partial curve]; as for `CC1CCN(C(=O)CSc2nnc(-c3cc4ccccc4cc3O)n2Cc2ccco2)CC1`, 31.6 µM [falling, partial curve].
Same read-out and setting: as for `COc1ccc(N(Cc2cccs2)C(=O)c2ccco2)cc1`, the figure is 31.6 µM [falling, partial curve]; as for `Cc1cc(C)cc(NC(=O)CCc2c(C)nc3nc(CNC(=O)c4cccc(F)c4)nn3c2C)c1`, 20 µM [falling, single point].
The same measure, in the same setting: the same measure for `COc1cccc(CN2C(=O)c3ccccc3Sc3ccc(C(=O)N(C)Cc4ccccc4)cc32)c1`: 0.398 µM [falling, partial curve]; for `CCCCNC(=O)CSc1nc2ccccc2nc1Cc1ccc(C)cc1`: 7.94 µM [rising, single point].
On to `C=CC1=C(C)C2=NC1=CC1=NC(=CC3=NC(=CC4=NC(=C2)C(C)=C4CCC(=O)O)C(CCC(=O)O)=C3C)C(C=C)=C1C.[Zn]`, for which the AC50 under setting [1] was 39.8 µM [rising, partial curve].
On the same count and under the same terms, as for `COc1cccc2cc(-c3nc(Nc4cccc(C)c4)sc3C)c(=O)oc12`, the figure is 25.1 µM [falling, partial curve, poor fit].
Regarding `O=C(c1cccs1)c1cn(CCOc2ccccc2F)c2ccccc12`, the AC50 under setting [1] was 10 µM [falling, partial curve].
On the same count and under the same terms, the same measure for `CC(C)c1ccc(S(=O)(=O)c2nnn3c2nc(N2CCN(C)CC2)c2sccc23)cc1`: 39.8 µM [falling, single point]; for `CC(=O)c1cccc(NC(=O)c2nc3ccccc3n(C)c2=O)c1`: 5.01 µM [falling, partial curve].
Still for that read-out and setting: the same measure for `CCOC(=O)c1ccccc1NC(=O)c1c2c(nc3ccccc13)C(=O)N(C1CCCCC1)C2`: 20 µM [falling, single point]; for `CCOC(=O)C1CCCN(CC(=O)N2CCCc3c2c(=O)oc2ccc(OCc4ccccc4)cc32)C1` (centres undefined): 31.6 µM [falling, partial curve].
The same measure, in the same setting: as for `COc1cc(OC)cc(C(=O)Nc2cc(-c3nc4cc(Cl)ccc4o3)ccc2Cl)c1`, the figure is 2.51 µM [falling, full curve].
On to `CCc1ccc(NC(=O)c2sc3ncnc(N(C)C4CCCCC4)c3c2C)cc1`, for which, under setting [1], the AC50 was 39.8 µM [falling, single point].
With `CCn1c(-c2cc(Br)cc(OC)c2O)nc2cc(S(=O)(=O)N(C)C)ccc21`, the AC50 under setting [1] was 39.8 µM [falling, single point].

By AC50 is commonly meant the concentration at which the activity in the assay is half-maximal.
